No constants are given. Whether binding was seen depends on the method and setting. Binding seen in cells or lysates may run through a third protein. Some entries that bind do so weakly or less than the wild type. For some assays here: Tags and fused reporters may be left off the sequences shown.

Chains of the proteins cited; added tags and fusions are not shown.
UniProt P04198: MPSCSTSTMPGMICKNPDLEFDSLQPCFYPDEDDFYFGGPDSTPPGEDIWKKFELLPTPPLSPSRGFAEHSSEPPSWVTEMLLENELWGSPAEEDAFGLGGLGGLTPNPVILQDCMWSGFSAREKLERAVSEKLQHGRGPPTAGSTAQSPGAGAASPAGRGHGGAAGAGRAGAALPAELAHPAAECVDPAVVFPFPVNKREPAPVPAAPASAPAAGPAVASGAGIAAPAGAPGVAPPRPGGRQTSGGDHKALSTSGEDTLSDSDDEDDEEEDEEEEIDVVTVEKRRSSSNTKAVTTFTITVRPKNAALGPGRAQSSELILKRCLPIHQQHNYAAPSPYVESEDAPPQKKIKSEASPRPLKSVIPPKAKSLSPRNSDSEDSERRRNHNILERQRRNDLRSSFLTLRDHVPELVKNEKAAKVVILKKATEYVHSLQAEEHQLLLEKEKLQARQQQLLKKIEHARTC

The values that follow come from publication PMC5507068.

One assay deals with V5-tagged MYCN (UniProt P04198). The assay is described as follows: co-IP; V5-MYCN and Flag-EYA1 co-transfected into HEK293TN cells; whole cell lysate two days post-transfection; IP with anti-V5 antibody, western blot with anti-Flag antibody.
Assay [1] deals with endogenous MYCN (human (endogenous in KELLY)) (UniProt P04198). The assay can be described thus: co-IP; nuclear extract of KELLY cells; IP with anti-MYCN antibody, immunoblot with anti-EYA1 antibody; endogenous proteins. (In western blotting, separated proteins are transferred to a membrane and probed.)

B1: Flag-tagged EYA1 (protein, UniProt Q99502 1-592)
chain: MEMQDLTSPHSRLSGSSESPSGPKLGNSHINSNSMTPNGTEVKTEPMSSSETASTTADGSLNNFSGSAIGSSSFSPRPTHQFSPPQIYPSNRPYPHILPTPSSQTMAAYGQTQFTTGMQQATAYATYPQPGQPYGISSYGALWAGIKTEGGLSQSQSPGQTGFLSYGTSFSTPQPGQAPYSYQMQGSSFTTSSGIYTGNNSLTNSSGFNSSQQDYPSYPSFGQGQYAQYYNSSPYPAHYMTSSNTSPTTPSTNATYQLQEPPSGITSQAVTDPTAEYSTIHSPSTPIKDSDSDRLRRGSDGKSRGRGRRNNNPSPPPDSDLERVFIWDLDETIIVFHSLLTGSYANRYGRDPPTSVSLGLRMEEMIFNLADTHLFFNDLEECDQVHIDDVSSDDNGQDLSTYNFGTDGFPAAATSANLCLATGVRGGVDWMRKLAFRYRRVKEIYNTYKNNVGGLLGPAKREAWLQLRAEIEALTDSWLTLALKALSLIHSRTNCVNILVTTTQLIPALAKVLLYGLGIVFPIENIYSATKIGKESCFERIIQRFGRKVVYVVIGDGVEEEQGAKKHAMPFWRISSHSDLMALHHALELEYL
For B1, the binding entry in the assay with V5-tagged MYCN was “binds”.

B2: endogenous EYA1 (protein, UniProt Q99502 1-592)
chain: MEMQDLTSPHSRLSGSSESPSGPKLGNSHINSNSMTPNGTEVKTEPMSSSETASTTADGSLNNFSGSAIGSSSFSPRPTHQFSPPQIYPSNRPYPHILPTPSSQTMAAYGQTQFTTGMQQATAYATYPQPGQPYGISSYGALWAGIKTEGGLSQSQSPGQTGFLSYGTSFSTPQPGQAPYSYQMQGSSFTTSSGIYTGNNSLTNSSGFNSSQQDYPSYPSFGQGQYAQYYNSSPYPAHYMTSSNTSPTTPSTNATYQLQEPPSGITSQAVTDPTAEYSTIHSPSTPIKDSDSDRLRRGSDGKSRGRGRRNNNPSPPPDSDLERVFIWDLDETIIVFHSLLTGSYANRYGRDPPTSVSLGLRMEEMIFNLADTHLFFNDLEECDQVHIDDVSSDDNGQDLSTYNFGTDGFPAAATSANLCLATGVRGGVDWMRKLAFRYRRVKEIYNTYKNNVGGLLGPAKREAWLQLRAEIEALTDSWLTLALKALSLIHSRTNCVNILVTTTQLIPALAKVLLYGLGIVFPIENIYSATKIGKESCFERIIQRFGRKVVYVVIGDGVEEEQGAKKHAMPFWRISSHSDLMALHHALELEYL
With B2, the binding result in assay [1] is on record as “binds”.
